The results in this text go back to publication PMC4100929.

Sequences of proteins named here, by UniProt entry; tags and fusion partners are left off. Residues count along the entry.
UniProt P63015, 4-130: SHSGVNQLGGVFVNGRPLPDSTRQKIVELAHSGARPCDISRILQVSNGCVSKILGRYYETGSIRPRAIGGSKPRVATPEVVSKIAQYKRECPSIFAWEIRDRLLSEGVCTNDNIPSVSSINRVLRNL

Construct, isoform or probe ends are uncertain for at least one entry. Weaker means in comparison with the reference protein, sequence or condition of that experiment.

The target in series [1] is GST-Pax6 paired domain (PD) (UniProt P63015). Nature of the series: EMSA. The settings on record: EMSA: 2 ug protein, 20000 cpm 32P probe, 1 ug poly(dI-dC), 5% TBE polyacrylamide gel, recombinant protein, label: 32P 5' end. For orientation: Mobility shift assays separate free from complexed probe on a gel.
In series [2] the test system is GST-Pax6(5a) paired domain (PD5a). Nature of the series: EMSA. The settings on record: not bound at all or very weakly; EMSA: 2 ug protein, 20000 cpm 32P probe, 1 ug poly(dI-dC), 5% TBE polyacrylamide gel; recombinant protein; label: 32P 5' end.

Take “CATCTGGGGGCGCCCAGATCATCAATTCGGAACGCTCCGGGCAAGAGGGG (double strand) [mDkk3 BSAP MUT]”: in series [1], the binding result is “binds more weakly”. Take “GGAGGAAGCTACGCTCAATGAGATGTTTCGAGAGGTGGAGGAG (double strand) [mDkk3 5aCON WT]”: the binding result in series [2] is on record as “binds more weakly”; in series [1] (binds, less efficiently than OPT and MUT) it was “binds more weakly”.
